Paper PMC4402518
No constants are given. Whether binding was seen depends on the method and setting. Binding calls can cover weak binding; strength is not graded here.

Sequences of proteins named here, by UniProt entry; tags and fusion partners are left off. A change or cut given only in a name is not applied to a line headed by its entry.
UniProt A8BZF2: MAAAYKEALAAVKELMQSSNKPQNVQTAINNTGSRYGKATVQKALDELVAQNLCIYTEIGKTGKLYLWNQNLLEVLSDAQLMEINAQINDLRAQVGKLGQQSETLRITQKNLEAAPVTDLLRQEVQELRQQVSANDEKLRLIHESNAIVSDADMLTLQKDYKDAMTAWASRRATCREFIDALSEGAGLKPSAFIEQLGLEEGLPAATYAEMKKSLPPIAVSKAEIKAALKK

Molecular target: Giardia lamblia Mnd1 (GL50803_6626), full length (Giardia lamblia ATCC 50803) (UniProt E2RTU1)
Test: crystal structure; hanging-drop vapor diffusion at 18°C, 18% PEG 3350, 0.1 M Tris-HCl pH 8.5, 2% Tascimate; SAD phasing with a SelMet crystal, refined against native data to 3.2 Å; three heterodimers in the asymmetric unit; both purified

## Giardia lamblia Hop2 (GL50803_17044), full length (from UniProt A8BZF2)
  binding: binds
